The target in the test is RAP1 (human) (UniProt Q9NYB0).

Results are given in words; binding and its absence hold for the method and conditions named. Binding can be weak; no strength is given.

With “TRF2(ΔBΔTRFH) (human) (domain or fragment)”, the binding entry was “binds”.

Source of the values: publication PMC12221994.
